Values quoted from earlier work in US4464385A, “Treatment of diabetic complications with hydantoins” (Alcon Laboratories, Inc., priority 1982, dated 1984).
For at least one compound, name, drawing or mass did not settle the structure.

Tested on: aldose reductase
Conditions: U.S. Pat. No. 4,130,714; cited from earlier work

O=C1NC(=O)C2(CCOc3ccc(F)cc32)N1 (single isomer, unassigned) [SARGES**, dspiro (6fluoro-chroman-4,4imidazolidine)-2',5dione, reference compound]
activity in preventing chronic diabetic complications: enhanced activity
